Some results were stated once for a whole list of compounds, not compound by compound. At least one compound was matched to its structure with a doubt left.
Test: Radiochemical purity and stability in aqueous formulations (HPLC)
Type: physicochemical
Settings: different aqueous solutions
Protocol: The stability of [^18F]-L-FPHCys and [^18F]-D-FPHCys formulated in each of the following solutions: • 1) 5% EtOH/95% phosphate buffer, pH 6, 0.15 M (HLPC solvent) • 2) saline • 3) Dulbecco's phosphate buffered saline, pH 7 • 4) Phosphate buffer, pH 7. were analysed by HPLC using a Gemini 150×4.6 mm, 5 μm, eluting with 100% Phosphate Buffer, pH 11.5, 0.05 M at 1 mL/min, λ=226 nm.

## N[C@@H](CCSCCC[18F])C(=O)O [[^18F]-L-FPHCys, S-(3-[^18F]fluoropropyl)-L-homocysteine]
  radiochemical purity over a period of 4 h: > 95%

Reference: patent US20120093726A1, “Radiolabeled Fluorine Derivatives of Methionine” (priority 2009, published 2012)
